# The supplement of paper PMC8728848
# Some of the results follow.
# Experiments:
# Experiment in all cases: glycan array binding signal (z-score within array); higher = stronger binding
# Conditions in all cases: glycan notation: IUPAC condensed, linker removed
# [1] = biological target: Neu5Ac(a2-6)Gal(b1-4)GlcNAc(b1-2)Man(a1-3)[Man(a1-6)]Man(b1-4)GlcNAc(b1-4)GlcNAc
# In short: (§1)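 Negative Z-scores can be read as non-binding. The Z-score is calculated within each array and then averaged across arrays of one protein sequence at different concentrations or buffers and across linkers. Arrays, 3228 in all, were curated from the Consortium for Functional Glycomics database and kept only where the protein sequence was available.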
# [2] = biological target: Neu5Ac(a2-6)Gal(b1-4)GlcNAc(b1-2)Man(a1-3)[Neu5Ac(a2-3)Gal(b1-4)GlcNAc(b1-2)Man(a1-6)]Man(b1-4)GlcNAc(b1-4)GlcNAc
# In short: as §1
# [3] = biological target: Neu5Ac(a2-6)Gal(b1-4)GlcNAc(b1-2)Man(a1-3)[Neu5Ac(a2-6)Gal(b1-4)GlcNAc(b1-2)Man(a1-6)]Man(b1-4)GlcNAc(b1-4)GlcNAc
# In short: as §1
# [4] = biological target: Neu5Ac(a2-6)Gal(b1-4)GlcNAc(b1-2)Man(a1-3)[Neu5Ac(a2-6)Gal(b1-4)GlcNAc(b1-2)Man(a1-6)]Man(b1-4)GlcNAc(b1-4)[Fuc(a1-6)]GlcNAc
# In short: as §1
# [5] = biological target: Neu5Ac(a2-6)Gal(b1-4)GlcNAc(b1-2)Man(a1-6)Man(b1-4)GlcNAc(b1-4)GlcNAc
# In short: as §1
# [6] = biological target: Neu5Ac(a2-6)Gal(b1-4)GlcNAc(b1-2)Man(a1-6)[Gal(b1-4)GlcNAc(b1-2)Man(a1-3)]Man(b1-4)GlcNAc(b1-4)GlcNAc
# In short: as §1
# [7] = biological target: Neu5Ac(a2-6)Gal(b1-4)GlcNAc(b1-2)Man(a1-6)[GlcNAc(b1-2)Man(a1-3)]Man(b1-4)GlcNAc(b1-4)GlcNAc
# In short: as §1
# [8] = biological target: Neu5Ac(a2-6)Gal(b1-4)GlcNAc(b1-2)Man(a1-6)[Man(a1-3)]Man(b1-4)GlcNAc(b1-4)GlcNAc
# In short: as §1
# [9] = biological target: Neu5Ac(a2-6)Gal(b1-4)GlcNAc(b1-2)[Neu5Ac(a2-6)Gal(b1-4)GlcNAc(b1-4)]Man(a1-3)[GlcNAc(b1-4)][Neu5Ac(a2-6)Gal(b1-4)GlcNAc(b1-2)[Neu5Ac(a2-6)Gal(b1-4)GlcNAc(b1-6)]Man(a1-6)]Man(b1-4)GlcNAc(b1-4)GlcNAc
# In short: as §1
# [10] = biological target: Neu5Ac(a2-6)Gal(b1-4)GlcNAc(b1-2)[Neu5Ac(a2-6)Gal(b1-4)GlcNAc(b1-4)]Man(a1-3)[GlcNAc(b1-4)][Neu5Ac(a2-6)Gal(b1-4)GlcNAc(b1-4)Man(a1-6)]Man(b1-4)GlcNAc(b1-4)GlcNAc
# In short: as §1
# [11] = biological target: Neu5Ac(a2-6)Gal(b1-4)GlcNAc(b1-2)[Neu5Ac(a2-6)Gal(b1-4)GlcNAc(b1-6)]Man(a1-6)[Neu5Ac(a2-6)Gal(b1-4)GlcNAc(b1-2)Man(a1-3)][GlcNAc(b1-4)]Man(b1-4)GlcNAc(b1-4)GlcNAc
# In short: as §1
# [12] = biological target: Neu5Ac(a2-6)Gal(b1-4)GlcNAc(b1-3)Gal(b1-3)GlcNAc
# In short: as §1
# [13] = biological target: Neu5Ac(a2-6)Gal(b1-4)GlcNAc(b1-3)Gal(b1-4)GlcNAc
# In short: as §1
# [14] = biological target: Neu5Ac(a2-6)Gal(b1-4)GlcNAc(b1-3)Gal(b1-4)GlcNAc(b1-2)Man(a1-3)[Neu5Ac(a2-6)Gal(b1-4)GlcNAc(b1-3)Gal(b1-4)GlcNAc(b1-2)Man(a1-6)]GalNAc
# In short: as §1
# [15] = biological target: Neu5Ac(a2-6)Gal(b1-4)GlcNAc(b1-3)Gal(b1-4)GlcNAc(b1-3)Gal(b1-4)GlcNAc
# In short: as §1
# [16] = biological target: Neu5Ac(a2-6)Gal(b1-4)GlcNAc(b1-3)Gal(b1-4)GlcNAc(b1-3)Gal(b1-4)GlcNAc(b1-2)Man(a1-3)[Neu5Ac(a2-6)Gal(b1-4)GlcNAc(b1-3)Gal(b1-4)GlcNAc(b1-3)Gal(b1-4)GlcNAc(b1-2)Man(a1-6)]GalNAc
# In short: as §1
# [17] = biological target: Neu5Ac(a2-6)Gal(b1-4)GlcNAc(b1-3)Gal(b1-4)GlcNAc(b1-3)GalNAc
# In short: as §1
# [18] = biological target: Neu5Ac(a2-6)Gal(b1-4)GlcNAc(b1-3)Gal(b1-4)GlcNAc(b1-3)[Neu5Ac(a2-6)Gal(b1-4)GlcNAc(b1-3)Gal(b1-4)GlcNAc(b1-6)]GalNAc
# In short: as §1
# [19] = biological target: Neu5Ac(a2-6)Gal(b1-4)GlcNAc(b1-3)Gal(b1-4)GlcNAc(b1-6)[Gal(b1-3)]GalNAc
# In short: as §1
# [20] = biological target: Neu5Ac(a2-6)Gal(b1-4)GlcNAc(b1-3)Gal(b1-4)[Fuc(a1-3)]GlcNAc(b1-3)Gal(b1-4)[Fuc(a1-3)]GlcNAc
# In short: as §1
# [21] = biological target: Neu5Ac(a2-6)Gal(b1-4)GlcNAc(b1-3)GalNAc
# In short: as §1
# [22] = biological target: Neu5Ac(a2-6)Gal(b1-4)GlcNAc(b1-3)[Neu5Ac(a2-6)Gal(b1-4)GlcNAc(b1-6)]GalNAc
# In short: as §1
# [23] = biological target: Neu5Ac(a2-6)Gal(b1-4)GlcNAc(b1-6)GalNAc
# In short: as §1
# [24] = biological target: Neu5Ac(a2-6)Gal(b1-4)GlcNAc(b1-6)[Gal(b1-3)GlcNAc(b1-3)]Gal(b1-4)Glc
# In short: as §1
# [25] = biological target: Neu5Ac(a2-6)Gal(b1-4)GlcNAc(b1-6)[Gal(b1-3)]GalNAc
# In short: as §1
# [26] = biological target: Neu5Ac(a2-6)Gal(b1-4)GlcNAc6S
# In short: as §1
# Neu5Ac(a2-6)GalNAc = biological target: Neu5Ac(a2-6)GalNAc
# In short: as §1
# [27] = biological target: Neu5Ac(a2-6)GalNAc(b1-4)GlcNAc
# In short: as §1
# [28] = biological target: Neu5Ac(a2-6)GalNAc(b1-4)GlcNAc6S
# In short: as §1
# [29] = biological target: Neu5Ac(a2-6)GlcNAc(b1-4)GlcNAc
# In short: as §1
# [30] = biological target: Neu5Ac(a2-6)GlcNAc(b1-4)GlcNAc(b1-4)GlcNAc
# In short: as §1
binder,measurement,setting,value
"YghJ (Escherichia coli), E3PJ90 (protein) MNKKFKYKKSLLAAILSATLLAGCDGGGSGSSSDTPPVDSGTGSLPEVKPDPTPNPEPTPEPTPDPEPTPEPIPDPEPTPEPEPEPVPTKTGYLTLGGSQRVTGATCNGESSDGFTFKPGEDVTCVAGNTTIATFNTQSEAARSLRAVEKVSFSLEDAQELAGSDDKKSNAVSLVTSSNSCPANTEQVCLTFSSVIESKRFDSLYKQIDLAPEEFKKLVNEEVENNAATDKAPSTHTSPVVPVTTPGTKPDLNASFVSANAEQFYQYQPTEIILSEGRLVDSQGYGVAGVNYYTNSGRGVTGENGEFSFSWGEAISFGIDTFELGSVRGNKSTIALTELGDEVRGANIDQLIHRYSTTGQNNTRVVPDDVRKVFAEYPNVINEIINLSLSNGATLGEGEQVVNLPNEFIEQFNTGQAKEIDTAICAKTDGCNEARWFSLTTRNVNDGQIQGVINKLWGVDTNYKSVSKFHVFHDSTNFYGSTGNARGQAVVNISNAAFPILMARNDKNYWLAFGEKRAWDKNELAYITEAPSIVRPENVTRETASFNLPFISLGQVGDGKLMVIGNPHYNSILRCPNGYSWNGGVNKDGQCTLNSDPDDMKNFMENVLRYLSNDRWLPDAKSSMTVGTNLETVYFKKHGQVLGNSAPFAFHKDFTGITVKPMTSYGNLNPDEVPLLILNGFEYVTQWGSDPYSIPLRADTSKPKLTQQDVTDLIAYMNKGGSVLIMENVMSNLKEESASGFVRLLDAAGLSMALNKSVVNNDPQGYPDRVRQRRSTPIWVYERYPAVDGKPPYTIDDTTKEVIWKYQQENKPDDKPKLEVASWQEEVEGKQVTQFAFIDEADHKTPESLAAAKQRILDAFPGLEVCKDSDYHYEVNCLEYRPGTDVPVTGGMYVPQYTQLDLSADTAKAMLQAADLGTNIQRLYQHELYFRTNGRQGERLNSVDLERLYQNMSVWLWNETKYRYEEGKEDELGFKTFTEFLNCYTNNAYVGTQCSAELKKSLIDNKMIYGEESSKAGMMNPSYPLNYMEKPLTRLMLGRSWWDLNIKVDVEKYPGVVNTNGETVTQNINLYSAPTKWFAGNMQSTGLWAPAQQEVSIESKSTVPVTVTVALADDLTGREKHEVSLNRPPRVTKTYDLKANDKVTFKVPYGGLIYIKGDSKEVQSADFTFTGVVKAPFYKDGKWQHDLNSPAPLGELESASFVYTTPKKNLNASNYTGGLEQFANDLDTFASSMNDFYGRDSEDGKHRMFTYKNLPGHKHRFANDVQISIGDAHSGYPVMNSSFSPNSTTLPTTPLNDWLIWHEVGHNAAETPLTVPGATEVANNVLALYMQDRYLGKMNRVADDITVAPEYLEESNGQAWARGGAGDRLLMYAQLKEWAEKNFDIKKWYPDGTPLPEFYSEREGMKGWNLFQLMHRKARGDEVSNDKFGGKNYCAESNGNAADTLMLCASWVAQTDLSEFFKKWNPGANAYQLPGASEMSFEGGVSQSAYNTLASLDLPKPEQGPETINQVTEHKMSAE",glycan array binding signal (z-score),[1],0.586
same,glycan array binding signal (z-score),[2],1.26
same,glycan array binding signal (z-score),[3],0.649
same,glycan array binding signal (z-score),[4],1.33
same,glycan array binding signal (z-score),[5],0.985
same,glycan array binding signal (z-score),[6],0.898
same,glycan array binding signal (z-score),[7],-0.305
same,glycan array binding signal (z-score),[8],-0.832
same,glycan array binding signal (z-score),[9],-0.767
same,glycan array binding signal (z-score),[10],0.017
same,glycan array binding signal (z-score),[11],-0.237
same,glycan array binding signal (z-score),[12],-0.231
same,glycan array binding signal (z-score),[13],1.22
same,glycan array binding signal (z-score),[14],-1.04
same,glycan array binding signal (z-score),[15],-1.35
same,glycan array binding signal (z-score),[16],0.058
same,glycan array binding signal (z-score),[17],0.508
same,glycan array binding signal (z-score),[18],-0.928
same,glycan array binding signal (z-score),[19],-1.78
same,glycan array binding signal (z-score),[20],-0.348
same,glycan array binding signal (z-score),[21],0.497
same,glycan array binding signal (z-score),[22],0.915
same,glycan array binding signal (z-score),[23],0.217
same,glycan array binding signal (z-score),[24],0.059
same,glycan array binding signal (z-score),[25],-1.4
same,glycan array binding signal (z-score),[26],0.082
same,glycan array binding signal (z-score),Neu5Ac(a2-6)GalNAc,0.205
same,glycan array binding signal (z-score),[27],-1.29
same,glycan array binding signal (z-score),[28],-0.547
same,glycan array binding signal (z-score),[29],-1.03
same,glycan array binding signal (z-score),[30],-0.586
